PubChem BioAssay AID504784, Drosophila RNAi Screening Center – 2011
Screen: 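Genome-wide knock-down for genes giving too much or too little stored lipid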 (primary screen). Cell system: Drosophila Kc167 embryonic cells. Knock-down reagent: long dsRNA against Drosophila genes, about 250 ng dsRNA per well. Time to read-out: 4 days. Treatment: cells fed 400 µM oleic acid bound to BSA. Detection: 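Microscope images give a droplet-to-nucleus area ratio, taken as log and converted to a screen-wide B-score; higher values mean greater lipid storage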. Reading the numbers: droplet/nuclear area B-score: higher = more stored lipid (overstorage).
The screen tested about 17,000 reagents; shown is an unselected part of those with a known target gene and a result. 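Each column is one replicate's B-score; the combined score over replicates was not deposited, so single values may mislead.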 Names joined by + are all predicted targets of the reagent.

target | dsRNA | droplet/nuclear area B-score, replicate 1 | droplet/nuclear area B-score, replicate 2 | droplet/nuclear area B-score, replicate 3
Obp50a (GeneID 246432) | DRSC22152 | 0.743 | -0.266 | –
Gos28 (GeneID 248102) | DRSC16292 | -0.345 | -0.863 | –
Gos28 (GeneID 248102) | DRSC22859 | -0.409 | -0.706 | –
CG4318 (GeneID 32266) | DRSC19887 | 0.841 | -0.367 | 0.768
mRpS7 (GeneID 34412) | DRSC02814 | -1.6 | -2.05 | –
Ret (GeneID 43875) | DRSC03409 | 1.68 | 0.728 | –
Ret (GeneID 43875) | DRSC03410 | 1.28 | 0.694 | –
CR11235 (GeneID 10178883) | DRSC20480 | 1.53 | -0.0153 | –
slgA (GeneID 33117) | DRSC20586 | 0.604 | -0.258 | –
Naprt (GeneID 33626) | DRSC00630 | 0.0522 | 0.667 | –
CG14229 (GeneID 32980) | DRSC19585 | 0.169 | 1.18 | –
CG14229 (GeneID 32980) | DRSC23149 | 2.33 | 1.35 | –
CG7367 (GeneID 34094) | DRSC03049 | -0.00553 | 1.03 | –
CG15236 (GeneID 35595) | DRSC04970 | 0.163 | 0.0513 | –
CG15236 (GeneID 35595) | DRSC21396 | -0.483 | -1.74 | –
CG15236 (GeneID 35595) | DRSC23025 | 2.84 | 1.11 | –
AstC-R2 (GeneID 40019) | DRSC10051 | -1.37 | 0.0657 | –
Adi1 (GeneID 326189) | DRSC10945 | 0.953 | 0.459 | –
Adi1 (GeneID 326189) | DRSC21485 | 0.669 | 0.267 | –
His3:CG33818 + His3:CG33857 + His3:CG33806 + 20 more | DRSC21267 | 3 | 2.62 | –
Fum2 (GeneID 31606) | DRSC18345 | -0.917 | -0.939 | –
CG15879 (GeneID 38274) | DRSC08487 | -1.52 | 0.00339 | –
CG13896 (GeneID 38089) | DRSC08366 | 1.2 | -0.0263 | –
CG13024 (GeneID 39880) | DRSC09904 | -0.959 | -0.869 | –
CG12470 (GeneID 30977) | DRSC18620 | -0.936 | -4.46 | –
AstA (GeneID 42947) | DRSC14634 | 0.111 | 0.195 | –
sunn (GeneID 326196) | DRSC21659 | 1.87 | -0.392 | –
CG8066 (GeneID 41766) | DRSC16374 | -0.744 | -2.74 | –
Toll-9 (GeneID 40245) | DRSC11776 | 1.09 | 2.12 | –
GABA-B-R2 (GeneID 42561) | DRSC14134 | -0.853 | 1.72 | -0.446
Prat2 (GeneID 38753) | DRSC09692 | 0.206 | -0.18 | –
Sem1 (GeneID 50428) | DRSC02282 | 2.05 | 1.6 | –
RpL36 (GeneID 31009) | DRSC18708 | 1.73 | 2.45 | –
CG8372 (GeneID 34121) | DRSC03086 | 0.887 | 0.352 | –
Ufc1 (GeneID 36762) | DRSC07156 | -0.406 | 0.0915 | –
Rpn12R (GeneID 2768973) | DRSC09842 | 0.688 | 0.236 | –
PCB (GeneID 36020) | DRSC05939 | -0.387 | 0.872 | –
Or85b (GeneID 41007) | DRSC16765 | -0.505 | 0.447 | –
Pura (GeneID 2768948) | DRSC08891 | 1.49 | -0.472 | –
Pura (GeneID 2768948) | DRSC10862 | -0.858 | -0.654 | –
Pura (GeneID 2768948) | DRSC10864 | -1.28 | -1.73 | –
Pura (GeneID 2768948) | DRSC10865 | -0.604 | 0.0886 | –
Pura (GeneID 2768948) | DRSC10866 | -0.0098 | -2.12 | –
stc (GeneID 34888) | DRSC03620 | -0.737 | -0.8 | –
aPKC (GeneID 47594) | DRSC05515 | 1.15 | -0.0398 | –
aPKC (GeneID 47594) | DRSC07639 | 0.846 | 0.243 | –
CG9536 (GeneID 33904) | DRSC03254 | -0.743 | -1.26 | –
Lcp65Ag3 (GeneID 59159) | DRSC10345 | -0.256 | 0.212 | 0.0338
barr (GeneID 35287) | DRSC03488 | 1.91 | 1.73 | –
CG15029 (retired record) (GeneID 32449) | DRSC19610 | 0.0877 | -2.83 | –
CG13474 (GeneID 39600) | DRSC10018 | -1.16 | 0.708 | –
Dhit (GeneID 37037) | DRSC07411 | -1.32 | -0.147 | –

Next part, starting with the last 11 of the part before.
target | dsRNA | droplet/nuclear area B-score, replicate 1 | droplet/nuclear area B-score, replicate 2 | droplet/nuclear area B-score, replicate 3
Pura (GeneID 2768948) | DRSC10865 | -0.604 | 0.0886 | –
Pura (GeneID 2768948) | DRSC10866 | -0.0098 | -2.12 | –
stc (GeneID 34888) | DRSC03620 | -0.737 | -0.8 | –
aPKC (GeneID 47594) | DRSC05515 | 1.15 | -0.0398 | –
aPKC (GeneID 47594) | DRSC07639 | 0.846 | 0.243 | –
CG9536 (GeneID 33904) | DRSC03254 | -0.743 | -1.26 | –
Lcp65Ag3 (GeneID 59159) | DRSC10345 | -0.256 | 0.212 | 0.0338
barr (GeneID 35287) | DRSC03488 | 1.91 | 1.73 | –
CG15029 (retired record) (GeneID 32449) | DRSC19610 | 0.0877 | -2.83 | –
CG13474 (GeneID 39600) | DRSC10018 | -1.16 | 0.708 | –
Dhit (GeneID 37037) | DRSC07411 | -1.32 | -0.147 | –
CG7213 (GeneID 38924) | DRSC10787 | 0.7 | -1.12 | –
Pif1 (GeneID 33567) | DRSC00582 | -0.573 | -0.411 | –
otp (GeneID 37364) | DRSC04050 | 0.215 | 0.439 | –
otp (GeneID 37364) | DRSC04707 | -0.459 | -0.0724 | –
Sesn (GeneID 37755) | DRSC04101 | -0.703 | 0.771 | –
Sesn (GeneID 37755) | DRSC04102 | -0.482 | -0.978 | –
Sesn (GeneID 37755) | DRSC04103 | 0.522 | -0.831 | –
CG16723 (GeneID 42781) | DRSC15138 | 0.0117 | -0.457 | –
CG33189 (GeneID 326328) | DRSC21427 | 1.06 | 1.12 | –
CG7203 (GeneID 34055) | DRSC03026 | 0.401 | -0.954 | –
CG11902 (GeneID 43070) | DRSC14434 | -1.58 | -1.28 | 1.22
Lsp2 (GeneID 45326) | DRSC09841 | -0.958 | -0.137 | –
Lsp2 (GeneID 45326) | DRSC11216 | -0.385 | -0.527 | –
CG13814 (retired record) (GeneID 40223) | DRSC10069 | 2.46 | -0.35 | –
Cyp28d1 (GeneID 33749) | DRSC03298 | -0.721 | 2.23 | –
Cyp28d1 (GeneID 33749) | DRSC21331 | 1.39 | -0.329 | –
CG31016 (GeneID 326113) | DRSC21359 | 0.307 | -0.718 | –
CG13579 (GeneID 37905) | DRSC04215 | 0.298 | 1.88 | –
Acf (GeneID 43751) | DRSC14101 | 0.85 | -0.681 | –
CG15888 (GeneID 41630) | DRSC15125 | 2.17 | 2.72 | –
wdb (GeneID 43312) | DRSC14163 | -0.421 | -0.796 | –
RpL37A (GeneID 44783) | DRSC02899 | 0.507 | 0.986 | –
Mmp1 (GeneID 37949) | DRSC04493 | -1.27 | 0.331 | –
CG6659 (GeneID 32854) | DRSC20003 | -1.74 | 1.16 | –
TpnC41C (GeneID 35473) | DRSC04916 | 0.791 | 1.37 | –
Ir8a (GeneID 31867) | DRSC17817 | 1.75 | 0.091 | -0.508
Ir8a (GeneID 31867) | DRSC17869 | -2.04 | -1.91 | -1.54
CG13062 (GeneID 39799) | DRSC09945 | 0.703 | 0.5 | –
CG12836 (GeneID 35630) | DRSC06182 | 0.895 | -1.66 | –
CG10602 (GeneID 35146) | DRSC02075 | 0.0138 | 0.0129 | –
ytr (GeneID 47457) | DRSC04306 | 0.269 | 0.102 | –
ytr (GeneID 47457) | DRSC22073 | 0.0256 | -0.317 | –
